From paper PMC9253567 come the findings set out here.

Sequences of proteins named here, by UniProt entry; tags and fusion partners are left off. A change or cut given only in a name is not applied to a line headed by its entry. A line that says so, or that is headed by a name, gives the form on record, which may keep a tag or linker.
UniProt Q7Z2W4: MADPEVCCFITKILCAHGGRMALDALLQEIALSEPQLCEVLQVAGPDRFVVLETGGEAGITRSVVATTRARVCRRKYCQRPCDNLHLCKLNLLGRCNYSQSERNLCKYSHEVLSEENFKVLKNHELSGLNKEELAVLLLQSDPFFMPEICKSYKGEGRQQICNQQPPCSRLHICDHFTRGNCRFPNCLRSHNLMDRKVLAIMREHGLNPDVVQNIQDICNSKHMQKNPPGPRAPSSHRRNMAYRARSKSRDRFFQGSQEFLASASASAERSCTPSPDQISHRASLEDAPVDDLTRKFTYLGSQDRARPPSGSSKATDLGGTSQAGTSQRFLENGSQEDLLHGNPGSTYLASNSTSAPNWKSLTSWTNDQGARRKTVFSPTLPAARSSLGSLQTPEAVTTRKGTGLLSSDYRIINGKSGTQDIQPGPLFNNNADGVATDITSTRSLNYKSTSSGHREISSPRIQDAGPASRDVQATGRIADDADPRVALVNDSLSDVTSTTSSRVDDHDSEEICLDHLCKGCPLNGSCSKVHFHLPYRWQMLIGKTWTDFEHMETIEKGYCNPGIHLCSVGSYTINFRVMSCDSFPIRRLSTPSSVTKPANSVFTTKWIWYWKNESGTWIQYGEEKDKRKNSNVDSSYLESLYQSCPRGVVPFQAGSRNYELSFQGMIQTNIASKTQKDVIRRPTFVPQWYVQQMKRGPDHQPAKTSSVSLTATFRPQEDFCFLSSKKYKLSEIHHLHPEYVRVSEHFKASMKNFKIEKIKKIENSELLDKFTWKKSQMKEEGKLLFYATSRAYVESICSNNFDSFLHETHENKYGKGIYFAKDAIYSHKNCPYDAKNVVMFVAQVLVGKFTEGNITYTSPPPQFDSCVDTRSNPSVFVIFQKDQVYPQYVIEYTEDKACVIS
FLAG-tagged ZAPS WT (zinc finger antiviral protein, short isoform) (Q7Z2W4, form named): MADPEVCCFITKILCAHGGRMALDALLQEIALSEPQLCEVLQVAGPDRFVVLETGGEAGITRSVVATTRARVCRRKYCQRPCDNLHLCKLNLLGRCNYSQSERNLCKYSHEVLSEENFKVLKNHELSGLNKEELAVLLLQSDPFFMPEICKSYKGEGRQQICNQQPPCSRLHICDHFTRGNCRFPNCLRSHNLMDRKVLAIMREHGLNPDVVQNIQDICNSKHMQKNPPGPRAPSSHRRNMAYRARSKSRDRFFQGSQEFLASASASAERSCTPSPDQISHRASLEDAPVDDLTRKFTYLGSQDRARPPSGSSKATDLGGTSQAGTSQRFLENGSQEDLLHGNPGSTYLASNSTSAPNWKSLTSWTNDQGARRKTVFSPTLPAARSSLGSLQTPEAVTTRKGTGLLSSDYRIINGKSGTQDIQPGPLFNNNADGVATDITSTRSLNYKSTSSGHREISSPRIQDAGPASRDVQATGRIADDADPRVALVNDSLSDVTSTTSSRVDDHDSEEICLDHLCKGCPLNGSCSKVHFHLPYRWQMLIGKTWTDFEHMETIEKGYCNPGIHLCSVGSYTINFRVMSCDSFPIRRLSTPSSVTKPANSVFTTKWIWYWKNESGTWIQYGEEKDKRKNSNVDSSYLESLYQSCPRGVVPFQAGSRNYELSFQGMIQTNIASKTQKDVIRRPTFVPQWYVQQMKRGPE
UniProt Q14258: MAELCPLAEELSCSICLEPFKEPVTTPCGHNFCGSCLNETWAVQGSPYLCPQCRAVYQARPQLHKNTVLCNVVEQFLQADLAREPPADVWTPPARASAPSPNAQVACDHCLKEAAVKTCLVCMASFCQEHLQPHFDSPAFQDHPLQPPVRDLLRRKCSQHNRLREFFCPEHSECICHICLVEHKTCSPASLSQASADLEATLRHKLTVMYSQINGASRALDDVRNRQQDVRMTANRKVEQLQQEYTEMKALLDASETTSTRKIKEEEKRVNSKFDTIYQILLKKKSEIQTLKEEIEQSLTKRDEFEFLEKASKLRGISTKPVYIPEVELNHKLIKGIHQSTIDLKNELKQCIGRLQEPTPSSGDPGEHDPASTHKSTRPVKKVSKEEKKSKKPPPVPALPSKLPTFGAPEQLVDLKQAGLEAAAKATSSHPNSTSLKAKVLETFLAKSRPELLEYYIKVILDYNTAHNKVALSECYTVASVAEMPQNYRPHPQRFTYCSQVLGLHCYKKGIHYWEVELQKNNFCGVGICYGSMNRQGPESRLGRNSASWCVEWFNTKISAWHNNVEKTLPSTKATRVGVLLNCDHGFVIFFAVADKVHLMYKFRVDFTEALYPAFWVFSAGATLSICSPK
myc-tagged TRIM25 7KA (lysine-rich 7K motif in the L2 linker replaced with alanines) (Q14258, form named): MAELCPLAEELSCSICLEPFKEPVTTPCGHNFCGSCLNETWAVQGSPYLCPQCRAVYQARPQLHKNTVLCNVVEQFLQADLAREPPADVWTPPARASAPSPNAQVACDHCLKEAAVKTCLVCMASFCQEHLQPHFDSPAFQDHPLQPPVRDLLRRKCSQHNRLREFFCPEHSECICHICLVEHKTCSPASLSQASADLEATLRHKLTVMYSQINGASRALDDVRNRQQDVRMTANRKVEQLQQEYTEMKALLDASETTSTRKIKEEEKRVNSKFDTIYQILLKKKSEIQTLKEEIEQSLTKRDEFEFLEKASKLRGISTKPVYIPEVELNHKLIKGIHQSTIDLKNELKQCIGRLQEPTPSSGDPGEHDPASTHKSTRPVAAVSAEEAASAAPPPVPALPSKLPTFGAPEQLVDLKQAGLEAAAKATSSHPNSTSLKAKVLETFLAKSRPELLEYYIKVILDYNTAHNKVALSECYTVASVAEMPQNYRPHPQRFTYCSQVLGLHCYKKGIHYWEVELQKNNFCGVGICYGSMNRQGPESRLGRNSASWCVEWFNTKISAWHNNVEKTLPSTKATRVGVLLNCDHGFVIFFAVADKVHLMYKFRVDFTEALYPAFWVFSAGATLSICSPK

The target of experiment [1] is FLAG-tagged ZAPL WT (zinc finger antiviral protein, long isoform) (human) (UniProt Q7Z2W4). Briefly: co-IP; FLAG IP (anti-FLAG beads) of FLAG-ZAPS or FLAG-ZAPL WT from lysates of TRIM25 KO 293T cells co-transfected with myc-TRIM25 WT or mutants (maximised transfected amounts); myc-TRIM25 detected by immunoblot; FLAG IP buffer, 4°C, 45 min; normalised to input, quantified with ImageJ. A general note: In western blotting, separated proteins are transferred to a membrane and probed.

Experiment [2] deals with FLAG-tagged ZAPS WT (zinc finger antiviral protein, short isoform) (human) (UniProt Q7Z2W4). The description is as above.

No constants are given. Whether binding was seen depends on the method and setting. Binding seen in cells or lysates may run through a third protein. Some results given as binding are weak or reduced against the parent protein; the word gives no strength.

As for “myc-tagged TRIM25 WT (tripartite motif-containing protein 25) (from UniProt Q14258 1-630)”, the binding entry in experiment [1] is “binds”.
Regarding “myc-tagged TRIM25 7KA (lysine-rich 7K motif in the L2 linker replaced with alanines) (from UniProt Q14258 1-630)”, the binding entry in experiment [1] and in experiment [2] was “binds” in each case.
